In PMC12392098:
The exact form of at least one protein or probe is not confirmed. At least one verdict rests on a figure or table, not on a statement of the authors.

Sequences of proteins named here, by UniProt entry; tags and fusion partners are left off. Residues count along the entry.
UniProt Q9Y543, 13-70: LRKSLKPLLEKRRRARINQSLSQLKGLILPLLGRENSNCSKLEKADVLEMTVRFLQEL
UniProt Q99929, 50-102: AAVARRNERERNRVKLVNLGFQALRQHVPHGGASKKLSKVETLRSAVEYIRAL

Assays:
[1] = target: HES2 DBD wild type (human) (UniProt Q9Y543); test: EMSA (fluorescent); details: 300 nM protein, 166.67 nM probe, bound-band marker for SELEX; 32P EMSA: ~50 nM probe, 0.5/1/2 uM protein, 30 min, reagents as in Feng et al., gel at 4 C; recombinant protein; protein details: N-terminal 6xHis
[2] = target: ASCL2 DBD wild type (human) (UniProt Q99929); test: EMSA (fluorescent); details: 300 nM protein, 166.67 nM probe, bound-band marker for SELEX; 32P EMSA: ~50 nM probe, 0.5/1/2 uM protein, 30 min, reagents as in Feng et al., gel at 4 C; recombinant protein; protein details: N-terminal 6xHis, mScarlet fusion

Row | Sequence | binding result [1] | binding result [2]
1 | CTCTCCTCCGTCAACACGTGTTGAGCAGCGCAGTCGTATGCCGTCTTCTGCTTG (double strand) [HES2 high-affinity fluorescent probe] | binds | 
2 | CTCTCCTCCGTCAACAGCTGTTGAGCAGCGCAGTCGTATGCCGTCTTCTGCTTG (double strand) [ASCL2 high-affinity fluorescent probe] |  | binds
